The series in a line: general procedure: Fmoc solid-phase peptide synthesis; 2-chlorotrityl chloride resin. Conditions: conjugation step.

Where no end group is shown, it is not given here.

The record followed here is patent US11738099B2 (CASE WESTERN RESERVE UNIVERSITY, priority 2014, dated 2023).

For CTVRTSAD, the conjugation yield is 82%.
